According to publication PMC8085418:
Results are given in words; binding and its absence hold for the method and conditions named. Binding seen in cells or lysates may run through a third protein. Some entries that bind do so weakly or less than the wild type.

Sequences of proteins named here, by UniProt entry; tags and fusion partners are left off.
UniProt Q92466: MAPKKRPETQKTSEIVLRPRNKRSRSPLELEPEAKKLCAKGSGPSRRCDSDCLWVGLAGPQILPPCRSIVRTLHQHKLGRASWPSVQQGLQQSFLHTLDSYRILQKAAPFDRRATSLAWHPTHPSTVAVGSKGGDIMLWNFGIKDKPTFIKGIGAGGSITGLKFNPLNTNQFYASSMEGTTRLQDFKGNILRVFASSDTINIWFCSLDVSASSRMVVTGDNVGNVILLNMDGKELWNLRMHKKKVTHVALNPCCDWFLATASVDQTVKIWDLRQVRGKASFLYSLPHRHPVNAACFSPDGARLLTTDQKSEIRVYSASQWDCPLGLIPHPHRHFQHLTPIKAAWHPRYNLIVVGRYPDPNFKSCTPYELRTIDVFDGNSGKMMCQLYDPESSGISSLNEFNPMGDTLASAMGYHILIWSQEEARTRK

Biological target: FLAG-DDB2 (UniProt Q92466)
Assay: co-IP; MEFs transduced with the constructs; immunoprecipitation for the FLAG epitope, then immunoblot; extracts made with 0.1% NP-40, 10% glycerol in PBS

B1: USP44 (enzyme, UniProt Q8C2S0 1-711)
chain: MDRCKHVEQLQLAQGHSILDPQKWYCMVCNTTESIWACLSCSHVACGKYIQEHALKHFQESSHPVAFEVNDMYAFCYLCNDYVLNDNAAGDLKSLRSTLSTIKSKKYPCVVPSDSVLHPVDAQDRVYSLLDGTQSLPGNEDPTCAALWHRRRVLMGKAFRTWFEQSAIGRKGQEPTQERMVAKREAKRRQQQELEQQMKAELESTPPRKSLRLQGSSEEAATIEIVPVRAPPPPPASPAKDKAALPTSEDRTFKKVSDSLIKRRPMVTPGVTGLRNLGNTCYMNSVLQVLSHLLIFRQCFLKLDLNQWLAVAASDKARSYKHSAVTEAAAQQMNEGQEKEKGFVCSRHSGLSSGLSGGASKGRNMELIQPREPSSPYSSLCHELHILFQVMWSGEWALVSPFAMLHSVWRLIPAFRGYAQQDAQEFLCELLDKIQRELETTGTKLPALIPTSQRRLIEQVLNVVNNIFHGQFLSQVTCLACDNKSDTIESFWDLSLEFPERYQCSGKDAASQPCLVTDMLDKFTETEALEGKIYMCDHCNSKRRKFSSKSVVFTEAQKQLMICHLPQVLRLHLKRFRWSGRNNREKIGVHVVFEETLNMEPYCCRETLNALRPECFLYNLSAVVIHHGKGFGSGHYTAYCYNSEGGFWVHCNDSKLSMCTMEEVRKAQAYILFYTQRVTENGHSKLLPPELLSNSQHPSKETDASSNEVLS
  binding: binds
